This series concerns HuH-7 cells (dendriform cell strain of human hepatoma). The series can be described thus: Measurement of antitumor effect: HuH-7 carcinoma pieces hypodermically implanted in nude mice, carcinomas weighed after administration. Format: in vivo. More on the design: key: −: weak antitumor effect and very strong toxicity against host mice; +/−: weak antitumor effect recognizable and toxicity against host mice also observable; +: a fixed level of antitumor effect observable but toxicity against host mice also strong; ++: strong antitumor effect observed and toxicity against host mice week; +++: strong antitumor effect observed and no toxicity against host mice. The note with it: overall grade of antitumor effect and toxicity against host mice. How it is done:
Measurement of Antitumor Effect
Carcinoma of HuH-7 cells (dendriform cell strain of human hepatoma) hypodermically implanted or subimplanted in the backs of 5-weeks old female nude mice (BALB/c, Ninox) was aseptically taken out and crushed into 5×5 mm sized pieces in a phosphate buffer solution (PBS), a piece of which then being hypodermically implanted in the backs of the nude mice.
Each test substance was dissolved in corn oil, and the solution was intraperitoneally administered to the nude mice consecutively once per day at a rate of 250 μg/mouse for 3 weeks, starting from a week after the implantation. After termination of the administration, the carcinomas were taken out and weighed to calculate the antitumor effect and the mice' weight loss by the following equations. For the test six mice per group were used, and the group administered with the solvent (corn oil) alone was made the control group:
Evaluations of antitumor effect and weight loss were conducted according to the following standard, where the control group values were held to be 100%.
• −: >100%, +/−: 100˜75%, +: 75˜50%, ++: 50˜25%, +++: 25˜0% Weight Loss • −: >110%, +/−: 110˜100%, +: 100˜95%, ++: 95˜90%, +++: <90% Death Rate (Death Rate During the Test Period) • −: none • +/−: death occurred with high concentration administration (500 μg/mouse) • +: 1-3 mice dead • ++: 3-5 mice dead • +++: all 6 mice dead Synthetic Evaluation • −: weak antitumor effect and very strong toxicity against host mice • +/−: weak antitumor effect recognizable and toxicity against host mice also observable • +: a fixed level of antitumor effect observable but toxicity against host mice also strong • ++: strong antitumor effect observed and toxicity against host mice week • +++: strong antitumor effect observed and no toxicity against host mice

As for `CC(C)=CCC/C(C)=C/CNC(=O)/C=C/C(=O)NC/C=C(\C)CCC=C(C)C` [N,N′-digeranylfumaric diamide, N,N′-digeranylfumaric Diamide], the “Synthetic Evaluation” value is listed as “++”. With `CC(O)(CCO)CC(=O)NC1C(O)OC(CO)C(O)C1O` (stereo not drawn), the “Synthetic Evaluation” value is reported as “+++”. The result for `CC(C)=CCC/C(C)=C/CNC(=O)CC(O)C(=O)NC/C=C(\C)CCC=C(C)C` (stereo not drawn) [N,N′-digeranylmalic diamide, N,N′-digeranylmalic Diamide] reads “++”.

As for `CC(C)=CCC/C(C)=C/C(=O)NC1C(O)OC(C)C(O)C1O` (stereo not drawn) [N-fucosegeranamide], the “Synthetic Evaluation” value is listed as “+++”. Turning to `CC(C)=CCC/C(C)=C/C(=O)N[C@@H](Cc1ccc(O)cc1)C(=O)O` [N-geranoyltyrosine], the “Synthetic Evaluation” value is reported as “++”.

For the compound `CC(=O)C(=O)Nc1ccc(C(=O)NC/C=C(\C)CCC=C(C)C)cc1` [N-geranyl-4-pyruvoaminobenzamide, N-geranyl-p-pyruvoaminobenzamide], the “Synthetic Evaluation” value is reported as “+++”.

On to `CC(=O)N[C@@H](Cc1ccc(O)cc1)C(=O)NC/C=C(\C)CCC=C(C)C` [N-acetyltyrosine geranylamide, N-acetyltyrosine Geranylamide], for which the “Synthetic Evaluation” value is given as “+”.

Consider `CC(C)=CCC/C(C)=C/CNC(=O)[C@@H](N)Cc1ccc(O)cc1` [Tyrosine geranylamide, Tyrosine Geranylamide], for which the “Synthetic Evaluation” value is “+”. The result for `CC(C)=CCC/C(C)=C/C(=O)NC1C(O)OC(CO)C(O)C1O` (stereo not drawn) reads “+++”.

The values are drawn from US7579376B2, “Geranyl compounds” (Ohgen Research Laboratories, Ltd., priority 2002, dated 2009).
